Patent publication US20250222065A1, “CYCLIC POLYPEPTIDE FOR THE TREATMENT OF PHA TYPE 1B” (priority 2015, published 2025)
For at least one compound, name, drawing or mass did not settle the structure.

Target: T1, αβγQ70K hENaC (Homo sapiens, UniProt P37088+P51168+P51170, Q70K)
T1 construct: expressed in transfected cells; host or cells: HEK-293
T1 sequence (P37088 1-669): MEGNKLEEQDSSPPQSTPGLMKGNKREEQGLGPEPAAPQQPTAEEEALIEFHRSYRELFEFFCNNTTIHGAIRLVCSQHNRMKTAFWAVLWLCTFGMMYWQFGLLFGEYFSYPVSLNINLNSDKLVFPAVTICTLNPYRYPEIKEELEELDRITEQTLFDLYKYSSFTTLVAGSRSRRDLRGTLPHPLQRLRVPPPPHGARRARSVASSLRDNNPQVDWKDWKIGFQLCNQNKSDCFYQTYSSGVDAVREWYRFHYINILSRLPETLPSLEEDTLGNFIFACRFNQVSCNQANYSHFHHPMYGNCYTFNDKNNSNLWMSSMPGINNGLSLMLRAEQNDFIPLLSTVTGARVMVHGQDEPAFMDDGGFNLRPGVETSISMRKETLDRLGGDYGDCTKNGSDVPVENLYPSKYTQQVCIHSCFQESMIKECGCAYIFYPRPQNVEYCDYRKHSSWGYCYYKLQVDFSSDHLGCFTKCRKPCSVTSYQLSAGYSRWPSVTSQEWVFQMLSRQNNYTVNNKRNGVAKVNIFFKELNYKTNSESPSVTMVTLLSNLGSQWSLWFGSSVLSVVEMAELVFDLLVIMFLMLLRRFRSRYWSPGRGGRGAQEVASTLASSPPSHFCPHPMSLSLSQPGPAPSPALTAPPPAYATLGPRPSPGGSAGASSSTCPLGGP
T1 sequence (P51168 1-640): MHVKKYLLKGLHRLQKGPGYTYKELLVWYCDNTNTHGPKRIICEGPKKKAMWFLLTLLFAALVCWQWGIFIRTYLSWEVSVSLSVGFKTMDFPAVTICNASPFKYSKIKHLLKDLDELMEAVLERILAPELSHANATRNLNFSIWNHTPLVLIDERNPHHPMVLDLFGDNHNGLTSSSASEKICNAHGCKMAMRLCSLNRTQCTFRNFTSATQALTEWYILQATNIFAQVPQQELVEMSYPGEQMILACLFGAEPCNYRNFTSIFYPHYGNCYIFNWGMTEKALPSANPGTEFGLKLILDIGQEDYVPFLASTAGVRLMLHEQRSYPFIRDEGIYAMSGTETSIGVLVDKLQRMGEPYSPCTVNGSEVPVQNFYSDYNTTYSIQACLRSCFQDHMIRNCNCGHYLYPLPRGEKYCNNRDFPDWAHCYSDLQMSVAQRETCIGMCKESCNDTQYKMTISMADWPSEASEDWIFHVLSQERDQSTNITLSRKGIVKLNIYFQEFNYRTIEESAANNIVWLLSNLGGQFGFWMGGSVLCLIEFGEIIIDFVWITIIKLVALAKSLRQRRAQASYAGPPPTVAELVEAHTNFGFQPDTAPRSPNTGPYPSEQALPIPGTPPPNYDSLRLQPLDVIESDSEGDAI
T1 sequence (P51170 1-649 Q70K): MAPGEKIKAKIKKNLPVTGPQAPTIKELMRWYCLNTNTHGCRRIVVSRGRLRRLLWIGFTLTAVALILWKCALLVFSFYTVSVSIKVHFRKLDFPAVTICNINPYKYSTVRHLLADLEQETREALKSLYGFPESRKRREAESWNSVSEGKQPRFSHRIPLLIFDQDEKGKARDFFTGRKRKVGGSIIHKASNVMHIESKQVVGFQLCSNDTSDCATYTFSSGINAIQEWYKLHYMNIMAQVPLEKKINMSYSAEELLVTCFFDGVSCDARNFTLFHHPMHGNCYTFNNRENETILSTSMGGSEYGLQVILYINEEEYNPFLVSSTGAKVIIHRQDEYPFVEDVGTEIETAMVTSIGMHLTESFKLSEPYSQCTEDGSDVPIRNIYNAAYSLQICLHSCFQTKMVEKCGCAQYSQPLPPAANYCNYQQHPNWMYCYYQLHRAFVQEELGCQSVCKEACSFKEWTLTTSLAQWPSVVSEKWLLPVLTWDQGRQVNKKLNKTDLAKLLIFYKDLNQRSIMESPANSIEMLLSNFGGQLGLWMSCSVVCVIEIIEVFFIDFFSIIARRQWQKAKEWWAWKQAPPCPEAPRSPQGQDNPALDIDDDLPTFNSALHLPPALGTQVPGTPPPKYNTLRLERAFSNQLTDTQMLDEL
Assay: Whole cell patch clamp, HEK-293 cells expressing mutant αβγQ70K-hENaC
Format: cell-based
Settings: HEK-293, whole cell patch clamp; no-peptide current: loss-of-function

Compound: C[C@@H]1NC(=O)CNC(=O)[C@H](CCC(=O)O)NC(=O)[C@@H]2CCCN2C(=O)[C@H]([C@@H](C)O)NC(=O)[C@H](CCC(=O)O)NC(=O)[C@H](CCCNC(=N)N)NC(=O)[C@H](CCC(N)=O)NC(=O)CNC(=O)[C@@H](N)CSSC[C@@H](C(=O)O)NC(=O)[C@H](Cc2ccc(O)cc2)NC(=O)[C@H](Cc2c[nH]c3ccccc23)NC(=O)[C@@H]2CCCN2C(=O)[C@H](CCCCN)NC(=O)[C@H](C)NC(=O)[C@H](CCC(=O)O)NC1=O [AP301]
- AP301 restored Na+ current: 305.2 ± 10.1 pA
